{"source": "PubChem BioAssay AID1224828 | NIAID | 2016", "purpose": "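Knock-downs that increase or decrease LPS-induced p65 nuclear translocation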 (primary screen)", "cells": "mouse RAW264.7 G9 macrophage reporter cells (GFP-p65, Tnf promoter-mCherry)", "reagent": "siRNA pool against mouse genes, 100 nM", "duration": "2 days siRNA transfection, then 40 min LPS before fixation", "treatment": "LPS (Salmonella minnesota R595) at 10 ng/ml", "measurement": "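Imaged p65 nuclear translocation ratio, normalised to the plate median, converted to robust z-scores and averaged across two replicates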", "scale": "p65 translocation robust z-score: higher = more nuclear NF-kappaB p65 after LPS than the plate median; nuclear/cytoplasmic p65 ratio: higher = more nuclear NF-kappaB p65", "hit rule": "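Active if robust z is above 3.3 (negative regulators) or below -1.56, the Tlr4 control median (positive regulators); activity score 50 or more; control wells not called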", "meaning of the calls": "active = hit (p65 shift raised or lowered); inactive = no clear change", "note": "In all, the deposit lists about 17,000 reagents; this is a random part of them. Of all reagents, 762 (4.5%) were called active. 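Active calls include both raised and lowered p65 entry, mostly lowered; wells with fewer than 50 cells lack a z-score.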 Raw values are not corrected between plates. No sequences are given here."}
{"Gene": "Pigz", "p65 translocation robust z-score": 0.29, "nuclear/cytoplasmic p65 ratio, rep 1": 1.62, "nuclear/cytoplasmic p65 ratio, rep 2": 1.39, "low cell count flag": "enough cells to score", "outcome": "inactive"}
{"Gene": "Spdye4a", "nuclear/cytoplasmic p65 ratio, rep 1": 1.13, "nuclear/cytoplasmic p65 ratio, rep 2": 1.18, "low cell count flag": "fewer than 50 cells per well; well left out of scoring", "outcome": "inactive"}
{"Gene": "Sptbn1", "p65 translocation robust z-score": 1.07, "nuclear/cytoplasmic p65 ratio, rep 1": 1.58, "nuclear/cytoplasmic p65 ratio, rep 2": 1.33, "low cell count flag": "enough cells to score", "outcome": "inactive"}
{"Gene": "Aprt", "p65 translocation robust z-score": -0.4, "nuclear/cytoplasmic p65 ratio, rep 1": 1.56, "nuclear/cytoplasmic p65 ratio, rep 2": 1.56, "low cell count flag": "enough cells to score", "outcome": "inactive"}
{"Gene": "Mgrn1", "p65 translocation robust z-score": -1.19, "nuclear/cytoplasmic p65 ratio, rep 1": 1.54, "nuclear/cytoplasmic p65 ratio, rep 2": 1.47, "low cell count flag": "enough cells to score", "outcome": "inactive"}
{"Gene": "Tmprss11g", "p65 translocation robust z-score": -1.5, "nuclear/cytoplasmic p65 ratio, rep 1": 1.24, "nuclear/cytoplasmic p65 ratio, rep 2": 1.32, "low cell count flag": "enough cells to score", "outcome": "inactive"}
{"Gene": "Prodh", "p65 translocation robust z-score": 2.34, "nuclear/cytoplasmic p65 ratio, rep 1": 1.87, "nuclear/cytoplasmic p65 ratio, rep 2": 1.67, "low cell count flag": "enough cells to score", "outcome": "inactive"}
{"Gene": "Ffar2", "nuclear/cytoplasmic p65 ratio, rep 1": 1.47, "nuclear/cytoplasmic p65 ratio, rep 2": 1.45, "low cell count flag": "fewer than 50 cells per well; well left out of scoring", "outcome": "inactive"}
{"Gene": "Slc66a2", "nuclear/cytoplasmic p65 ratio, rep 1": 1.32, "nuclear/cytoplasmic p65 ratio, rep 2": 1.28, "low cell count flag": "fewer than 50 cells per well; well left out of scoring", "outcome": "inactive"}
{"Gene": "Hif3a", "p65 translocation robust z-score": 0.68, "nuclear/cytoplasmic p65 ratio, rep 1": 1.37, "nuclear/cytoplasmic p65 ratio, rep 2": 1.48, "low cell count flag": "enough cells to score", "outcome": "inactive"}
{"Gene": "Sycp1", "p65 translocation robust z-score": -0.18, "nuclear/cytoplasmic p65 ratio, rep 1": 1.38, "nuclear/cytoplasmic p65 ratio, rep 2": 1.14, "low cell count flag": "enough cells to score", "outcome": "inactive"}
{"Gene": "Blvrb", "p65 translocation robust z-score": -0.02, "nuclear/cytoplasmic p65 ratio, rep 1": 1.64, "nuclear/cytoplasmic p65 ratio, rep 2": 1.58, "low cell count flag": "enough cells to score", "outcome": "inactive"}
{"Gene": "Oxtr", "p65 translocation robust z-score": -1.91, "nuclear/cytoplasmic p65 ratio, rep 1": 1.24, "nuclear/cytoplasmic p65 ratio, rep 2": 1.23, "low cell count flag": "enough cells to score", "outcome": "active"}
{"Gene": "Or3a1b", "p65 translocation robust z-score": -1.85, "nuclear/cytoplasmic p65 ratio, rep 1": 1.35, "nuclear/cytoplasmic p65 ratio, rep 2": 1.17, "low cell count flag": "enough cells to score", "outcome": "active"}
{"Gene": "Hdac4", "p65 translocation robust z-score": -0.84, "nuclear/cytoplasmic p65 ratio, rep 1": 1.45, "nuclear/cytoplasmic p65 ratio, rep 2": 1.52, "low cell count flag": "enough cells to score", "outcome": "inactive"}
{"Gene": "Tbl3", "p65 translocation robust z-score": 2.25, "nuclear/cytoplasmic p65 ratio, rep 1": 1.83, "nuclear/cytoplasmic p65 ratio, rep 2": 1.73, "low cell count flag": "enough cells to score", "outcome": "inactive"}
{"Gene": "Ndfip2", "p65 translocation robust z-score": 1.97, "nuclear/cytoplasmic p65 ratio, rep 1": 2.1, "nuclear/cytoplasmic p65 ratio, rep 2": 1.89, "low cell count flag": "enough cells to score", "outcome": "inactive"}
{"Gene": "Kif24", "p65 translocation robust z-score": 1.55, "nuclear/cytoplasmic p65 ratio, rep 1": 1.68, "nuclear/cytoplasmic p65 ratio, rep 2": 1.72, "low cell count flag": "enough cells to score", "outcome": "inactive"}
{"Gene": "Ptgir", "nuclear/cytoplasmic p65 ratio, rep 1": 1.34, "nuclear/cytoplasmic p65 ratio, rep 2": 1.36, "low cell count flag": "fewer than 50 cells per well; well left out of scoring", "outcome": "inactive"}
{"Gene": "Ccnd2", "p65 translocation robust z-score": 0.64, "nuclear/cytoplasmic p65 ratio, rep 1": 1.53, "nuclear/cytoplasmic p65 ratio, rep 2": 1.48, "low cell count flag": "enough cells to score", "outcome": "inactive"}
{"Gene": "Gk", "p65 translocation robust z-score": 1.66, "nuclear/cytoplasmic p65 ratio, rep 1": 1.95, "nuclear/cytoplasmic p65 ratio, rep 2": 1.6, "low cell count flag": "enough cells to score", "outcome": "inactive"}
{"Gene": "Scx", "nuclear/cytoplasmic p65 ratio, rep 1": 1.65, "nuclear/cytoplasmic p65 ratio, rep 2": 1.36, "low cell count flag": "fewer than 50 cells per well; well left out of scoring", "outcome": "inactive"}
{"Gene": "Scd1", "p65 translocation robust z-score": 0.28, "nuclear/cytoplasmic p65 ratio, rep 1": 1.36, "nuclear/cytoplasmic p65 ratio, rep 2": 1.74, "low cell count flag": "enough cells to score", "outcome": "inactive"}
{"Gene": "Usp24", "p65 translocation robust z-score": 0.39, "nuclear/cytoplasmic p65 ratio, rep 1": 1.63, "nuclear/cytoplasmic p65 ratio, rep 2": 1.71, "low cell count flag": "enough cells to score", "outcome": "inactive"}
{"Gene": "Or7g30", "p65 translocation robust z-score": -0.07, "nuclear/cytoplasmic p65 ratio, rep 1": 1.43, "nuclear/cytoplasmic p65 ratio, rep 2": 1.36, "low cell count flag": "enough cells to score", "outcome": "inactive"}
{"Gene": "Polr3gl", "nuclear/cytoplasmic p65 ratio, rep 1": 1.33, "nuclear/cytoplasmic p65 ratio, rep 2": 1.22, "low cell count flag": "fewer than 50 cells per well; well left out of scoring", "outcome": "inactive"}
{"Gene": "Or8k24", "p65 translocation robust z-score": 1.97, "nuclear/cytoplasmic p65 ratio, rep 1": 2.01, "nuclear/cytoplasmic p65 ratio, rep 2": 1.82, "low cell count flag": "enough cells to score", "outcome": "inactive"}

2 entries from above, reformatted.
Gene,p65 translocation robust z-score,"nuclear/cytoplasmic p65 ratio, rep 1","nuclear/cytoplasmic p65 ratio, rep 2",low cell count flag,outcome
Spdye4a,,1.13,1.18,fewer than 50 cells per well; well left out of scoring,inactive
Sptbn1,1.07,1.58,1.33,enough cells to score,inactive
